Results are given in words; binding and its absence hold for the method and conditions named. In cells and extracts the contact can be indirect.
biological target: T1, mCherry-Rad (mouse) (UniProt O88667); experiment: co-IP; co-transfected HEK 293 cells, lysate in 50 mmol/L Tris-HCl, 150 mmol/L NaCl, 1% NP-40; precipitated with anti-Rem, anti-Gem, anti-Rem2 or anti-Rad antibody and protein G beads; blot with anti-GFP
T1 sequence: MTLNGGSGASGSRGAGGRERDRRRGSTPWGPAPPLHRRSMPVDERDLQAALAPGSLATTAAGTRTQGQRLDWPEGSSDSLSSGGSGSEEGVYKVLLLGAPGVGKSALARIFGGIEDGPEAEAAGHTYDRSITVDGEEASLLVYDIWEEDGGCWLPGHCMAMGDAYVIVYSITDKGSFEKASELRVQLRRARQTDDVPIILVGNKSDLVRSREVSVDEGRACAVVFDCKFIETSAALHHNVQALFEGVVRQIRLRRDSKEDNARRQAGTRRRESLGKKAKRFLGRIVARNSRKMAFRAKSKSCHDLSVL

Row | Substance | binding
1 | CFP-tagged α1C I–II loop (domain or fragment) | no binding
2 | CFP-tagged α1C II–III loop (domain or fragment) | no binding
3 | CFP-tagged α1C C-terminus (domain or fragment) | no binding
4 | CFP-tagged α1C III–IV loop (domain or fragment) | no binding

Reference: PMC3349659
